Results are given in words; binding and its absence hold for the method and conditions named. Some results given as binding are weak or reduced against the parent protein; the word gives no strength.
Columns and labels:
[1] = molecular target: Gal4ad-ZipA fusion (pGAD424-ZipA(23-328), SHp104) (Escherichia coli) (UniProt P77173); assay: yeast two-hybrid, Gal4 system
[2] = molecular target: Gal4ad-ZipA fusion (pGAD424-ZipA(23-328), SHp104) (Escherichia coli) (UniProt P77173); assay: yeast two-hybrid, Gal4 system, growth on selective plate

Sequences of proteins named here, by UniProt entry; tags and fusion partners are left off. A change or cut given only in a name is not applied to a line headed by its entry.
UniProt P04386: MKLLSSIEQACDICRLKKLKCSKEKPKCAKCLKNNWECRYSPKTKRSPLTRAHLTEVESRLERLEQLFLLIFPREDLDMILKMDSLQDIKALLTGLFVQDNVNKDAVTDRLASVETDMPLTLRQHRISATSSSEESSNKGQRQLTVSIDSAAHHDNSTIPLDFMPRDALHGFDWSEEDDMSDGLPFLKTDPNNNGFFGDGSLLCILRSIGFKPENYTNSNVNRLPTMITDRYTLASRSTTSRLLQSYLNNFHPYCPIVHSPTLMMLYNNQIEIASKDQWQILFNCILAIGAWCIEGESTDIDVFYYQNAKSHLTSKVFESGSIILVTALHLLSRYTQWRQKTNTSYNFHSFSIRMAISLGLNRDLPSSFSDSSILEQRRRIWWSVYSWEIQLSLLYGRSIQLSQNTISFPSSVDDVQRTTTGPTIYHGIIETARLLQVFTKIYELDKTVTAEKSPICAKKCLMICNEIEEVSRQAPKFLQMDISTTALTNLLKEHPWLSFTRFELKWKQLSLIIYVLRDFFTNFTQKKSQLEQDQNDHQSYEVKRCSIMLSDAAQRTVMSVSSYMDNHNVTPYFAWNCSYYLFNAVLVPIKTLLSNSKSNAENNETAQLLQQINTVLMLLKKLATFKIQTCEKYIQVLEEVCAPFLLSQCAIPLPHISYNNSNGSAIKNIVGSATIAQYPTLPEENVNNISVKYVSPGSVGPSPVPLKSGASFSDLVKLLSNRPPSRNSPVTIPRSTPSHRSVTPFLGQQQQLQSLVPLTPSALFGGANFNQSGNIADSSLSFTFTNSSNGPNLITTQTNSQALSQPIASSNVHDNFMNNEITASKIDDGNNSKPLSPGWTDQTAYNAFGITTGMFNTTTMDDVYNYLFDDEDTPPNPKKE

## Gal4bd-OrfE fusion (pAS2-1 fusion of kil) (from UniProt P04386 1-147; P38393 1-73)
[1]
  binding: binds
[2]
  binding: binds

— US20030078191A1
